Assay results published in PubChem BioAssay AID445 (National Center for Advancing Translational Sciences (NCATS), 2006).
The other results are listed elsewhere or left out. The main result of the screen is listed elsewhere. These columns were measured beside it and carry no call. Compounds called inactive in the main read-out are mostly missing here. The note in brackets gives the kind of curve behind each potency; many fits are weak.

assay: IkB Signaling; settings: ABC-DLBCL IkBa-CBG/CBR dual luciferase ratio (green luciferase fused to IkBa over red control in OCI-Ly3 lymphoma cells), 4 h; measured here: control luc red channel unless noted
Method in brief: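 Luminescence ratio of IκBα-fused green versus native red beetle luciferase in OCI-Ly3 cells, 4 h post-doxycycline with compound; red signal alone, scaled from basal (0%) to zero light (-100%), flagged nonspecific or cytotoxic effects.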

Compound | AC50
Cc1cc(O)c(C(c2ccccc2)N2CCN(C)CC2)c(=O)n1Cc1ccco1 (stereo unspecified) | 0.0126 µM [falling, full curve]
CC1=C(C(=O)N2CCN(c3cccc(C)c3C)CC2)C2(CCCCC2)OC1=O | 15.8 µM [falling, partial curve]
COc1ccc(-c2noc(CN(C(C)C)S(=O)(=O)c3ccc(Br)cc3)n2)cc1 | 39.8 µM [falling, single point]
Cc1cccc(NC2=CC(c3cccc(Br)c3)N(c3cccc(C)c3)C2=O)c1 (stereo unspecified) | 5.01 µM [falling, partial curve]
Cc1cc(NC(=O)c2ccccc2F)n(-c2nc3ccccc3[nH]2)n1 | 25.1 µM [falling, partial curve]
O=C(CCN1CCc2ccccc2C1)Nc1ccccc1 | 12.6 µM [falling, partial curve]
CCc1ccc(NCc2cc3cc(OC)c(OC)cc3n(CC(=O)Nc3cc(C)ccc3C)c2=O)cc1 | 15.8 µM [falling, partial curve]
COc1ccc(C(C)n2c(C)c3c(C)nnc(C)c3c2C)cc1 (stereo unspecified) | 15.8 µM [falling, single point]
Cc1cccc(C)c1Nc1nc2ccccc2nc1NS(=O)(=O)c1ccccc1 | 3.98 µM [falling, partial curve]
COc1ccc(S(=O)(=O)N(CC(=O)NCc2ccccc2)c2ccc(C)cc2)cc1OC | 25.1 µM [falling, partial curve, poor fit]
COc1cccc(CNC(=O)CSc2ncc(S(=O)(=O)c3ccc(Br)cc3)c(=O)[nH]2)c1 | 20 µM [falling, partial curve]
Cc1ccc(-c2nnc(Nc3ccc(Cl)c(Cl)c3)c3ccccc23)cc1S(=O)(=O)NCCO | 1.26 µM [falling, full curve]
Cc1ccc(NC(=O)C2CCCN2S(=O)(=O)c2cccc3nsnc23)cc1Cl (stereo unspecified) | 6.31 µM [falling, single point]
CC1CCN(S(=O)(=O)c2ccc3c(c2)CCN3C(=O)Nc2ccc(Br)cc2)CC1 | 2.51 µM [rising, partial curve]
Cc1ccccc1C(=O)N1CCN(CCc2ccccn2)CC1 | 7.94 µM [falling, full curve, poor fit]
c1ccc2[nH]c(NC3=NCCC3)nc2c1 | 39.8 µM [rising, single point] [measured here: IkB-luc green channel]
Cc1c(C(=O)Nc2ccc(C(C)C)cc2)sc2nc[nH]c(=O)c12 | 3.16 µM [rising, partial curve]
Cc1ccc(CNC(=O)c2c(O)nc3c(C)cccn3c2=O)cc1 | 20 µM [falling, partial curve, poor fit]
Cc1nc2ccc(S(=O)(=O)NC(CC(C)C)C(=O)N3CCN(c4ccc(F)cc4)CC3)cc2s1 (stereo unspecified) | 20 µM [falling, partial curve]
COc1ccc(Br)cc1CNC(=O)c1nn(-c2ccc(C)cc2)c(=O)c2c1c1ccccc1n2C | 20 µM [rising, partial curve]
Cc1ccccc1-c1noc(-c2cccnc2N(C)Cc2ccc(Cl)cc2)n1 | 10 µM [rising, partial curve]

Structures listed so far that have fluorine, in the order listed:
Compound | AC50
Cc1cc(NC(=O)c2ccccc2F)n(-c2nc3ccccc3[nH]2)n1 | 25.1 µM [falling, partial curve]
Cc1nc2ccc(S(=O)(=O)NC(CC(C)C)C(=O)N3CCN(c4ccc(F)cc4)CC3)cc2s1 (stereo unspecified) | 20 µM [falling, partial curve]

Continuation.

Compound | AC50
Fc1ccc(Cc2cn3cc(-c4ccccc4)nc3s2)cc1 | 10 µM [falling, partial curve]
CCOC(=O)c1ccc(NC(=O)c2csnn2)cc1 | 7.94 µM [falling, full curve, poor fit]
CCOC(=O)c1cccc(NC(=O)CCC(=O)N2CC(C)Oc3ccc(C)cc32)c1 (stereo unspecified) | 20 µM [falling, single point]
COc1ccc(-c2n[nH]c3c2C(c2ccc(O)cc2)N(c2ccc(Br)cc2)C3=O)cc1 (stereo unspecified) | 15.8 µM [falling, partial curve]
c1ccc(OCCCc2nc(-c3ccncc3)no2)cc1 | 31.6 µM [falling, single point]
O=C(NC1CCCCCC1)c1ccc2c(c1)sc1nc(-c3ccccc3)cn12 | 39.8 µM [falling, single point]
CC1CN(c2nc(-c3ccccc3)nc3ccccc23)CC(C)O1 (stereo unspecified) | 20 µM [falling, partial curve]
C=CCn1c(SCCCc2ccccc2)nc2c1c(=O)[nH]c(=O)n2C | 25.1 µM [falling, partial curve]
Clc1ccc2nc(SCc3nnc(-c4ccccc4)o3)[nH]c2c1 | 31.6 µM [falling, single point]
O=C(C1CCC(Cn2c(=O)c3sccc3n(Cc3cccc(F)c3)c2=O)CC1)N1CCCCC1 (stereo unspecified) | 3.16 µM [rising, partial curve]
COc1ccc(CCNC(=O)c2ccc(CS(=O)(=O)Cc3cccc(C)c3)o2)cc1OC | 31.6 µM [falling, partial curve]
COC(=O)c1ccc(NC(=O)c2sc3nc(-c4ccccc4)cn3c2C)cc1 | 2 µM [falling, full curve]
CNC(=O)c1cc2c(=O)n3cc(C)ccc3nc2n(Cc2ccco2)c1=N | 12.6 µM [falling, partial curve]
CC(C)CCNC(=O)C1CCN(C(=O)N2CCOc3ccc(Cl)cc32)CC1 | 6.31 µM [falling, partial curve]
COc1ccc(C(=O)Nc2ccc(-c3cc4ccccc4oc3=O)c(C)c2)cc1OC | 10 µM [falling, partial curve]
COc1ccc(-c2noc(CSc3nnc(-c4ccncc4)n3-c3ccc(C)cc3)n2)cc1 | 25.1 µM [falling, single point]
COc1cccc(CNC(=O)C2CCC(CNS(=O)(=O)c3ccc(Br)s3)CC2)c1 (stereo unspecified) | 3.98 µM [falling, partial curve]
CCOC(=O)C(Cc1c[nH]c2ccccc12)NC(=O)COc1ccc(Cl)c(C)c1 (stereo unspecified) | 31.6 µM [falling, partial curve]
CCOc1nc(NC(=O)NS(=O)(=O)Oc2ccccc2)nc(-c2ccccc2)n1 | 20 µM [rising, partial curve]
COc1ccc(C(c2c(O)ccc3ccccc23)N2CCOCC2)c(OC)c1 (stereo unspecified) | 7.94 µM [falling, full curve]
